## Screening data, single-dose tests

From ChEMBL document CHEMBL3988442, “University of Dundee, Small-Polar-MMV Screening Library” (2021).

The filed quantity is “Percent Effect” (%).
How 0% and 100% were set is not recorded. Most values in the screen are low, and negative values occur.
Compounds were drawn at random from those tested, without regard to their results.
Two or more numbers in one place are separate tests of the same structure; such repeats can differ widely.

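Whole-cell growth test on Mycobacterium tuberculosis, read after 3 days in glucose-containing 7H9 medium; the read-out is not stated. Tested at 50 µM. The record gives no direction; compounds that gave an IC50 in retests scored well above the rest, so higher reads as more growth inhibition. Size under these conditions: about 69,000 compounds, about 760 of them at 50% or above in at least one test.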

Cc1ccc(CN2CC3(CCN(C(=O)c4cccnc4)C3)C2)o1.O=C(O)C(F)(F)F.O=C(O)C(F)(F)F read 1.452%. Cn1cc(NC(=O)N2CCC(NS(C)(=O)=O)CC2)ccc1=O gave 1.277%. Result for [H][C@]12CC[C@]([H])(CN(C(=O)Nc3cccc4ccccc34)C1)N(C)C2=O was 8.571% and 8.583%. CSc1nccc(N2C[C@@H](CN3CCCCC3)[C@@H](CO)C2)n1 read -12.3% and 2.817%. Cc1ccc(C2CN(CCCS(=O)(=O)C(C)C)CCO2)c(C)c1 (configuration not stated) gave 9.203% and 8.571%.

Result for O=C(O)C(F)(F)F.[H][C@@]12COC[C@]1(CNC(=O)N(C)C)CN(Cc1cc(C)on1)C2 was -15.69%. With CCc1nnc2n1CCN(C(=O)c1cc(Cl)c[nH]1)C2 the screen gave 16.78%. CC(=O)N1C[C@@H](F)[C@@H](OCc2nc3ccccc3o2)C1 read -35.64% and -5.47%. [H][C@@]12CS(=O)(=O)C[C@]1([H])N(Cc1nc(C)n[nH]1)CCN2Cc1ccccc1 gave 5.368% and -5.014%. With O=C(NC1CCCC1)c1nc2c(o1)CN(C(=O)CCO)C2 the screen gave -6.8% and -6.176%.

With O=C(CCNC(=O)c1ccoc1)Nc1c(F)cccc1F the screen gave -7.792%. Cc1nn(C)c2nc(N(Cc3ccccc3)CC3CCCO3)sc12 (configuration not stated) gave 28.59%. Result for Cc1cccc2cc(CN3CCC(O)(CN4CCCC4)CC3)c(=O)[nH]c12 was -0.5573% and 6.21%. Result for O=C(O)C(F)(F)F.[H][C@@]12CC(=O)N(CC(C)C)[C@@]1([H])CCN2Cc1cccc(C#N)c1 was -38.63%. CCN(Cc1cccc(Cl)c1)Cc1nc2c(cnn2C)c(=O)[nH]1 read -0.934%.

Result for Cc1nnc(NC(=O)N2CCC(N3CCCCC3)CC2)s1 was 12.93% and -4.965%. CCc1nccn1-c1cccc(C2CCCN2S(=O)(=O)N(C)C)n1 (configuration not stated) read -9.708%. With COc1cccc2sc(OC3CN(C(=O)C4=COCCO4)C3)nc12 the screen gave 26.1% and 31.99%. CC(C)COCCC(=O)Nc1ccc2oc(=O)n(CCN(C)C)c2c1 read -23.18%. CCc1ccc(N2CCC(NS(=O)(=O)N(CC)CC)CC2)cc1 read -7.447%.

O=C(CN1CCc2cncnc2C1)NC(C1CC1)C1CC1 read 1.721% and -9.245%. Result for Cc1cc(CN2CCN(c3ccc4nncn4n3)C(C)C2)on1 (configuration not stated) was 0.5241%. For CC(NC(=O)N1CCN(CCc2ccccc2)CC1)c1nncn1C (configuration not stated) the result was 11.72%. Cc1noc(C)c1-c1ccc(C2CCCN2C(=O)c2cccnn2)nc1 (configuration not stated) gave 26.52%. c1cc(-c2noc(C3CCC3)n2)cc(N2CCCCC2)n1 read 29.77%.

COc1ccc(Cn2cc(C(=O)N(C)Cc3cnccn3)nn2)cc1 read 0.2285% and 11.53%. Result for Cc1cnn(C2CN(CC(=O)NCc3ccccn3)C2)c1 was 16.33%. With COCCNC(=O)Cn1cc(OCc2ccccc2F)c(=O)cc1CO the screen gave -17.79%. For Cc1nccn1CCC1CCCCN1Cc1ccc(O)cc1Cl (configuration not stated) the result was 12.32%. For CC(C)n1c(=O)c2sccc2n(CC(=O)Nc2cccc(Cl)c2)c1=O the result was 6.042%.

CS(=O)(=O)c1ccc(CNC[C@H]2COCc3nc4ccccc4n32)cc1 gave -17.33% and 7.74%. With CS(=O)(=O)NCCCNC(=O)c1cccnc1O the screen gave -4.996%. For CCc1n[nH]c(C2CN(C(=O)Cn3ccccc3=O)CCO2)n1 (configuration not stated) the result was -23.93%. With Cc1ncc(CN2CCc3c(nc(-c4ccccn4)[nH]c3=O)C2)n1C the screen gave 18.3%. Result for COCCC(=O)N(Cc1ccccn1)Cc1ccccc1C was -14.97%.

Cc1cc(N(C)CCN(C)C)n2nc(C)cc2n1 gave 29.83%. For O=C(CCc1ccccc1Br)NCC(=O)NCc1ccccc1 the result was 26.18%. CN(C(=O)NC1CC1)C1CCN(c2ccc(Cl)cc2)CC1 gave 19.38%. Cc1ccc(-n2cc(C(=O)N3CCCC(n4cccn4)C3)nn2)cc1 (configuration not stated) gave 13.99%. For COc1cc2cc(C)c(SCCN3CCCC3)nc2cc1OC.Cl the result was 51.88%.

CC(Nc1cccc(CN2CCOC2=O)c1)C(=O)NC(=O)NC(C)(C)C (configuration not stated) read -25%. Result for CCN(C(=O)CN1CCCC1Cc1ccccc1)c1ccccc1 (configuration not stated) was 38.73% and 35.51%. Cc1ncc2c(n1)CN(Cc1nc(C)c(C)o1)CC2 read -14.96%. Result for CCC(CO)N(Cc1ccc(C(=O)O)cc1)Cc1ccsc1 (configuration not stated) was -9.234%. Cc1nc(C)n(CC2CN(CCCc3ccccc3)CCO2)n1 (configuration not stated) gave -1.74%.

c1cc(C2CCCN2CC2CC2)n[nH]1 (configuration not stated) read 6.041%. For CCCC(O)CN1CCC(=O)N(CC2CC2)Cc2cc3c(cc21)OCO3 (configuration not stated) the result was -24.05%.

Some entries from above, unchanged:

| structure | percent effect |
|---|---|
| `[H][C@@]12CS(=O)(=O)C[C@]1([H])N(Cc1nc(C)n[nH]1)CCN2Cc1ccccc1` | 5.368 and -5.014 |
| `CCN(Cc1cccc(Cl)c1)Cc1nc2c(cnn2C)c(=O)[nH]1` | -0.934 |
| `O=C(O)C(F)(F)F.[H][C@@]12COC[C@]1(CNC(=O)N(C)C)CN(Cc1cc(C)on1)C2` | -15.69 |